From PMC12083654
Positions count from the first letter of the chain named. Names and notes keep the numbering of the source. These are yes or no findings as the source states them, for the method shown. In cells and extracts the contact can be indirect. Some binding calls cover weakened binding; strength is not graded here. Tags and fused reporters may be left off the sequences shown.

T1: HA-tagged WT-RPE65 (human) (UniProt Q16518)
T1 sequence: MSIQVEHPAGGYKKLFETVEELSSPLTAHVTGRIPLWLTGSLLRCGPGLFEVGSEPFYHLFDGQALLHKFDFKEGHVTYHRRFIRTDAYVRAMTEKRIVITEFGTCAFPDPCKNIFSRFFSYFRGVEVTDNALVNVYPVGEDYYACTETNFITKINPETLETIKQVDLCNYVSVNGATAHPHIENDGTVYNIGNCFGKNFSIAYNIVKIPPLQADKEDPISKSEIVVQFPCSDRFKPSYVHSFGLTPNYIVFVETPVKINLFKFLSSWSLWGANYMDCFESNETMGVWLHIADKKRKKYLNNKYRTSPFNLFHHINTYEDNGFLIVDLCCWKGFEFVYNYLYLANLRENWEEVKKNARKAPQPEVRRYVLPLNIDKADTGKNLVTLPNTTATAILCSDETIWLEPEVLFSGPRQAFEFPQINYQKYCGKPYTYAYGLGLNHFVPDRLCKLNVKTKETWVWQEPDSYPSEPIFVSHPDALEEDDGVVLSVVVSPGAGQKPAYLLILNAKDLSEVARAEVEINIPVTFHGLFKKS

B1: MYC-tagged p.(D477G)-RPE65 (enzyme, UniProt Q16518 1-533)
chain: T1 sequence with D477G
B2: MYC-tagged p.(E519K)-RPE65 (enzyme, UniProt Q16518 1-533)
chain: T1 sequence with E519K

Target: T1, HA-tagged WT-RPE65 (human)
Assay: co-IP; ARPE-19 cells single or co-transfected at equal molar ratio with HA-tagged WT-RPE65 and MYC-tagged variant RPE65; RIPA extract 48 h after transfection; protein A Dynabeads with anti-MYC, anti-HA or anti-IgG; blots with anti-MYC and anti-HA

Row | binding | Binder
1 | binds | B1
2 | no binding | B2
